PubChem BioAssay AID1259308 | NCATS | 2017

Aim: 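Knock-downs that increase output of a recombinant reporter protein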 (primary screen)
Cells: human HEK293 embryonic kidney cells stably expressing firefly luciferase (HEK-CMV-Luc2-Hygro)
Knock-down reagent: single siRNA against human genes, 0.8 pmol siRNA per well
Time to read-out: 72 h
Read-out: 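Reporter luminescence and viable-cell signal on separate replicate plates, given as percent of non-targeting control and median/MAD z-scores, plus per-cell luciferase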
Direction: total luciferase, z-score and total luciferase, % of control: higher = more reporter protein produced
Call rule: 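An siRNA counts as active if its total luciferase robust z-score exceeds 3; genes with two or more such siRNAs out of three were retested with fresh siRNAs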
Calls: active = raised luciferase; inactive = no rise
In all, the deposit lists about 59,000 reagents; this is an unselected part. About 1,510 of them (2.6%) count as active. 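Calls use total luciferase alone and ignore viability, so some active siRNAs may act by altering cell number.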 A number with no mark means an inactive call. The numbers tell different reagents against one gene apart. Not all columns of the deposit are shown. No sequences are given here.

TRA2B (transformer 2 beta homolog) #1
- total luciferase, z-score: 1.94
- total luciferase, % of control: 120

TRA2B (transformer 2 beta homolog) #2
- total luciferase, z-score: 0.158
- total luciferase, % of control: 85

TRA2B (transformer 2 beta homolog) #3
- total luciferase, z-score: 3.65 (active)
- total luciferase, % of control: 154

CDH12 (cadherin 12) #1
- total luciferase, z-score: -0.656
- total luciferase, % of control: 68.8

CDH12 (cadherin 12) #2
- total luciferase, z-score: 0.493
- total luciferase, % of control: 91.7

CDH12 (cadherin 12) #3
- total luciferase, z-score: -1.52
- total luciferase, % of control: 51.8

MTNR1A (melatonin receptor 1A) #1
- total luciferase, z-score: -0.619
- total luciferase, % of control: 69.6

MTNR1A (melatonin receptor 1A) #2
- total luciferase, z-score: 0.119
- total luciferase, % of control: 84.3

MTNR1A (melatonin receptor 1A) #3
- total luciferase, z-score: -0.822
- total luciferase, % of control: 65.5

DNAAF10 (dynein axonemal assembly factor 10) #1
- total luciferase, z-score: 0.906
- total luciferase, % of control: 99.9

DNAAF10 (dynein axonemal assembly factor 10) #2
- total luciferase, z-score: -0.482
- total luciferase, % of control: 72.3

DNAAF10 (dynein axonemal assembly factor 10) #3
- total luciferase, z-score: -0.501
- total luciferase, % of control: 71.9

AMD1P3 (adenosylmethionine decarboxylase 1 pseudogene 3) #1
- total luciferase, z-score: -0.536
- total luciferase, % of control: 71.2

AMD1P3 (adenosylmethionine decarboxylase 1 pseudogene 3) #2
- total luciferase, z-score: 0.205
- total luciferase, % of control: 86

AMD1P3 (adenosylmethionine decarboxylase 1 pseudogene 3) #3
- total luciferase, z-score: -0.972
- total luciferase, % of control: 62.5

SLC10A3 #1
- total luciferase, z-score: -0.676
- total luciferase, % of control: 68.4

SLC10A3 #2
- total luciferase, z-score: -1.6
- total luciferase, % of control: 50

SLC10A3 #3
- total luciferase, z-score: -2.32
- total luciferase, % of control: 35.7

DNAJC5B (DnaJ heat shock protein family (Hsp40) member C5 beta) #1
- total luciferase, z-score: 0.206
- total luciferase, % of control: 86

DNAJC5B (DnaJ heat shock protein family (Hsp40) member C5 beta) #2
- total luciferase, z-score: 0.988
- total luciferase, % of control: 102

DNAJC5B (DnaJ heat shock protein family (Hsp40) member C5 beta) #3
- total luciferase, z-score: -1.7
- total luciferase, % of control: 48.1

Just “total luciferase, % of control” (3 entries from above):
DNAJC5B (DnaJ heat shock protein family (Hsp40) member C5 beta) #1: 86
DNAJC5B (DnaJ heat shock protein family (Hsp40) member C5 beta) #2: 102
DNAJC5B (DnaJ heat shock protein family (Hsp40) member C5 beta) #3: 48.1
